PubChem BioAssay AID1159584 | Peter MacCallum Cancer Centre | 2016
Test: 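Genes that CDH1-null MCF10A cells selectively depend on to survive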 (primary screen). System: human MCF10A breast epithelial cells, parental and CDH1-null. Reagent: siRNA against human genes. Measurement: 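Cell viability by CellTiter-Glo ATP luminescence, each line scaled to the mean of mock wells across plates, then CDH1-null over parental ratio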. Direction: CDH1-null / parental viability ratio: higher = CDH1-null cells survive relatively better than parental; CDH1-null viability vs mock: higher = more viable CDH1-null cells. Units: CDH1-null viability vs mock in fraction of mock.
Here is one part, drawn at random, of about 18,000 reagents. Not all columns of the deposit are shown. Not given: the amount of reagent, the time to read-out.

Against ROPN1L, the entry reads CDH1-null / parental viability ratio 1.02; CDH1-null viability vs mock 0.87.
Silencing of PIR resulted in: CDH1-null / parental viability ratio 1.09; CDH1-null viability vs mock 1.
Depletion of CRELD1 gave: CDH1-null / parental viability ratio 1.08; CDH1-null viability vs mock 0.95.
For EGLN2 the deposit lists CDH1-null / parental viability ratio 0.96; CDH1-null viability vs mock 0.74.
TRIM75 showed CDH1-null / parental viability ratio 0.94; CDH1-null viability vs mock 0.94.
With knock-down of CHMP2A, the record shows CDH1-null / parental viability ratio 1.21; CDH1-null viability vs mock 0.29.
ITM2B scored CDH1-null / parental viability ratio 0.95; CDH1-null viability vs mock 0.93.
Depletion of KLK8 gave: CDH1-null / parental viability ratio 1; CDH1-null viability vs mock 0.82.
Against ARHGAP5, the values are CDH1-null / parental viability ratio 1.11; CDH1-null viability vs mock 0.91.
GNB1 scored CDH1-null / parental viability ratio 0.86; CDH1-null viability vs mock 0.66.
BCORL1 gave CDH1-null / parental viability ratio 0.92; CDH1-null viability vs mock 0.9.
RAB40A showed CDH1-null / parental viability ratio 1; CDH1-null viability vs mock 0.68.
For FAM76B the deposit lists CDH1-null / parental viability ratio 0.94; CDH1-null viability vs mock 0.88.
KATNA1 gave CDH1-null / parental viability ratio 1.09; CDH1-null viability vs mock 0.98.
Against BATF3, the values are CDH1-null / parental viability ratio 0.98; CDH1-null viability vs mock 0.9.
Against ADAMTS9, the entry reads CDH1-null / parental viability ratio 1.21; CDH1-null viability vs mock 0.97.
Silencing of TMEM200C gave: CDH1-null / parental viability ratio 0.91; CDH1-null viability vs mock 0.82.
With knock-down of RYR1, the screen gave CDH1-null / parental viability ratio 1.27; CDH1-null viability vs mock 1.02.
Silencing of MMP19 gave: CDH1-null / parental viability ratio 1.36; CDH1-null viability vs mock 0.68.
After knock-down of RPS17, the record shows CDH1-null / parental viability ratio 1.41; CDH1-null viability vs mock 0.48.
VPS52 scored CDH1-null / parental viability ratio 1.51; CDH1-null viability vs mock 0.59.
Depletion of DUSP15 resulted in: CDH1-null / parental viability ratio 1.21; CDH1-null viability vs mock 0.8.
OPA1 showed CDH1-null / parental viability ratio 1.35; CDH1-null viability vs mock 0.84.
CRYBA2 scored CDH1-null / parental viability ratio 0.93; CDH1-null viability vs mock 0.71.
With knock-down of SLC35A3, the record shows CDH1-null / parental viability ratio 0.93; CDH1-null viability vs mock 0.82.
EHD3 showed CDH1-null / parental viability ratio 1.1; CDH1-null viability vs mock 1.07.
With knock-down of OR6K2 the results were CDH1-null / parental viability ratio 1.04; CDH1-null viability vs mock 0.79.
After knock-down of GLMP, the screen gave CDH1-null / parental viability ratio 0.95; CDH1-null viability vs mock 0.97.
LAPTM5 showed CDH1-null / parental viability ratio 0.94; CDH1-null viability vs mock 0.78.
For PDCD10 the deposit lists CDH1-null / parental viability ratio 1.22; CDH1-null viability vs mock 1.21.
After knock-down of HRK the results were CDH1-null / parental viability ratio 0.92; CDH1-null viability vs mock 0.57.
Against ACLY the deposit lists CDH1-null / parental viability ratio 1.27; CDH1-null viability vs mock 1.27.
For PTGFR, the values are CDH1-null / parental viability ratio 1.37; CDH1-null viability vs mock 1.07.
SLC35A2 scored CDH1-null / parental viability ratio 1.21; CDH1-null viability vs mock 0.92.
After knock-down of PRKX, the screen gave CDH1-null / parental viability ratio 0.77; CDH1-null viability vs mock 0.56.
Against KLHDC7B, the entry reads CDH1-null / parental viability ratio 1.13; CDH1-null viability vs mock 0.71.
Against H4C6, the entry reads CDH1-null / parental viability ratio 1.04; CDH1-null viability vs mock 0.8.
Against FAM20A, the entry reads CDH1-null / parental viability ratio 1.22; CDH1-null viability vs mock 0.84.
After knock-down of SORD, the screen gave CDH1-null / parental viability ratio 0.85; CDH1-null viability vs mock 0.82.
PTCHD4 scored CDH1-null / parental viability ratio 0.97; CDH1-null viability vs mock 0.58.
Against HROB, the entry reads CDH1-null / parental viability ratio 0.88; CDH1-null viability vs mock 0.76.
Knock-down of CASZ1 came out at: CDH1-null / parental viability ratio 1.01; CDH1-null viability vs mock 0.87.
With knock-down of N4BP1, the screen gave CDH1-null / parental viability ratio 1.04; CDH1-null viability vs mock 0.98.
After knock-down of SPIC, the record shows CDH1-null / parental viability ratio 1.06; CDH1-null viability vs mock 1.04.
BCL2L1 showed CDH1-null / parental viability ratio 0.74; CDH1-null viability vs mock 0.62.
